Reference: patent US6491948B1, “Composition comprising isoquercetin and ascorbic acid in a sustained release form” (Merck Patent GmbH, priority 1999, dated 2002)
At least one compound was matched to its structure with a doubt left.

What was measured:
ascorbate oxidation = experiment: inhibition of ascorbate oxidation; format: biochemical
human lymphocytes = settings: cited from earlier work

Structure (SMILES): O=c1c(O[C@@H]2O[C@H](CO)[C@@H](O)[C@H](O)[C@H]2O)c(-c2ccc(O)c(O)c2)oc2cc(O)cc(O)c12 [isoquercetin, quercetin-3-O-glucoside]
- inhibition of ascorbate oxidation (ascorbate oxidation): effectively inhibits ascorbate oxidation
- protection against oxidative DNA damage (human lymphocytes): dose-dependent protection against oxidative DNA damage
